Reference: PubChem BioAssay AID1671195 (Yale University, 2021)

- Aim: 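Regulators of LDL receptor activity judged by labelled LDL uptake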 (primary screen)
- Cells: human Huh7 hepatoma cells
- Reagents: siRNA pool against human genes, 18 nM
- Time to read-out: about 2 to 2.5 days of knockdown, then 8 h LDL uptake
- Challenge: DiI-labelled LDL at 30 µg/ml for 8 h, in lipoprotein-deficient serum medium
- Measured: 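Per-cell DiI-LDL intensity by automated imaging; well means scaled to the plate median and given as a robust z-score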
- Reading the numbers: robust z-score: higher = more LDL uptake after knockdown
- Hit rule: 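a gene counts as active if at least two replicate z-scores exceed ±2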
The whole screen tested about 22,000 reagents; shown is a random part of them. Over the whole deposit, about 1,510 (6.9%) were called active. 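Active includes knockdowns raising or lowering LDL uptake; positive z-scores mean more uptake, negative mean less.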 No sequences are given here.

Depletion of HECW1 came out at: robust z-score, replicate 1 = -0.409; robust z-score, replicate 2 = -0.597; robust z-score, replicate 3 = 0.0449; inactive.
Against ZSCAN23 (zinc finger and SCAN domain containing 23), the entry reads robust z-score, replicate 1 = 0.163; robust z-score, replicate 2 = 0.272; robust z-score, replicate 3 = 1.25; inactive.
Silencing of LOC440609 (retired record) came out at: robust z-score, replicate 1 = -0.183; robust z-score, replicate 2 = -0.488; robust z-score, replicate 3 = -0.794; inactive.
With knock-down of TTC14 (tetratricopeptide repeat domain 14), the screen gave robust z-score, replicate 1 = 1.66; robust z-score, replicate 2 = 0.806; robust z-score, replicate 3 = 1.71; inactive.
For OLR1 (oxidized low density lipoprotein receptor 1), the values are robust z-score, replicate 1 = 0.0209; robust z-score, replicate 2 = -0.563; robust z-score, replicate 3 = -0.473; inactive.
After knock-down of ZNF232 (zinc finger protein 232) the results were robust z-score, replicate 1 = 2.99; robust z-score, replicate 2 = 1.98; robust z-score, replicate 3 = 2.13; active.
After knock-down of RPS3A (ribosomal protein S3A), the record shows robust z-score, replicate 1 = -0.977; robust z-score, replicate 2 = -0.402; robust z-score, replicate 3 = 1.21; inactive.
C6orf89 (chromosome 6 open reading frame 89) scored robust z-score, replicate 1 = -0.473; robust z-score, replicate 2 = -0.627; robust z-score, replicate 3 = -0.484; inactive.
TRAPPC6A (trafficking protein particle complex subunit 6A) gave robust z-score, replicate 1 = -0.163; robust z-score, replicate 2 = 0.0788; robust z-score, replicate 3 = 0.332; inactive.
Against PRDX1 (peroxiredoxin 1), the values are robust z-score, replicate 1 = -0.0236; robust z-score, replicate 2 = -1.03; robust z-score, replicate 3 = -0.111; inactive.
For PTPRCAP the deposit lists robust z-score, replicate 1 = -0.234; robust z-score, replicate 2 = 0.335; robust z-score, replicate 3 = -0.211; inactive.
Against HNRNPUL2 (heterogeneous nuclear ribonucleoprotein U like 2) the deposit lists robust z-score, replicate 1 = 0.548; robust z-score, replicate 2 = 0.555; robust z-score, replicate 3 = 0.331; inactive.

2 entries from above, limited to “robust z-score, replicate 2”.
C6orf89 (chromosome 6 open reading frame 89) = -0.627
TRAPPC6A (trafficking protein particle complex subunit 6A) = 0.0788
